Measurements reported in PubChem BioAssay AID743458 (Peter MacCallum Cancer Centre, 2014)

- Screen: 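Identify genes whose loss lifts vorinostat resistance in colon cancer cells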 (follow-up of hits)
- System: human HCT116-VR colon cancer cells made resistant to vorinostat
- Reagent: single siRNA or pool against human genes, 25 nM per single siRNA
- Timing: about 72 h after transfection, including 24 h of drug
- Conditions: vorinostat, 2.5 µM final, for 24 h
- Measurement: 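Cell viability by fluorescence and apoptosis by caspase 3/7 luminescence under vorinostat, background-corrected, averaged across two plate copies and given as fold change versus mock transfection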
- Direction: viability relative to mock: higher = more living cells than mock; caspase activity relative to mock: higher = more apoptosis than mock
- Hit rule: 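An siRNA counts as active if classed as reduced viability or as caspase activation, otherwise inactive; a hit class needed wells that remained healthy in the absence of drug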
The whole screen tested about 1,800 reagents; shown is a part drawn at random. 732 of them (41%) were called active. 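Calls are per siRNA reagent; a gene was deemed confirmed only if most of its four siRNAs scored.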 The numbers tell different reagents against one gene apart.

target | reagent no. | viability relative to mock | caspase activity relative to mock | viability hit class | caspase hit class | activity call
RLN3 | 1 | 0.72 | 3.06 | no change | caspase activation | active
RLN3 | 2 | 0.72 | 3.23 | no change | caspase activation | active
RLN3 | 3 | 0.55 | 4.7 | reduced viability | caspase activation | active
RLN3 | 4 | 0.68 | 4.42 | no change | caspase activation | active
GSX2 | 1 | 0.88 | 0.9 | no change | no change | inactive
GSX2 | 2 | 0.66 | 3.7 | no change | caspase activation | active
GSX2 | 3 | 0.94 | 0.92 | no change | no change | inactive
GSX2 | 4 | 0.82 | 2.31 | no change | no change | inactive
OXTR | 1 | 1.04 | 1.45 | no change | no change | inactive
OXTR | 2 | 0.54 | 5.11 | reduced viability | caspase activation | active
OXTR | 3 | 0.87 | 1.21 | no change | no change | inactive
OXTR | 4 | 1.02 | 1.26 | no change | no change | inactive
TFAP2D | 1 | 0.71 | 2.8 | no change | caspase activation | active
TFAP2D | 2 | 0.7 | 4.08 | no change | caspase activation | active
TFAP2D | 3 | 0.79 | 1.27 | no change | no change | inactive
TFAP2D | 4 | 0.64 | 3.68 | no change | caspase activation | active
RARS2 | 1 | 0.98 | 1.13 | no change | no change | inactive
RARS2 | 2 | 0.72 | 1.48 | no change | no change | inactive
RARS2 | 3 | 0.79 | 1.17 | no change | no change | inactive
RARS2 | 4 | 1 | 0.94 | no change | no change | inactive
RUNX2 | 1 | 0.78 | 2.23 | no change | no change | inactive
RUNX2 | 2 | 0.96 | 1.25 | no change | no change | inactive
RUNX2 | 3 | 0.97 | 1.8 | no change | no change | inactive
RUNX2 | 4 | 0.31 | 3.28 | reduced viability | caspase activation | active
OTUB2 | 1 | 1.09 | 1.31 | no change | no change | inactive
OTUB2 | 2 | 0.64 | 3.69 | no change | caspase activation | active
OTUB2 | 3 | 0.6 | 3.97 | no change | caspase activation | active
OTUB2 | 4 | 0.84 | 1.44 | no change | no change | inactive
QSOX1 | 1 | 0.99 | 1.79 | no change | no change | inactive
QSOX1 | 2 | 0.72 | 1.68 | no change | no change | inactive
QSOX1 | 3 | 0.58 | 4.41 | no change | caspase activation | active
QSOX1 | 4 | 0.56 | 3.97 | reduced viability | caspase activation | active
GLYCTK | 1 | 0.98 | 3 | no change | caspase activation | active
GLYCTK | 2 | 0.92 | 0.88 | no change | no change | inactive
GLYCTK | 3 | 0.91 | 1.84 | no change | no change | inactive
GLYCTK | 4 | 0.43 | 2.92 | reduced viability | caspase activation | active
KRTAP13-2 | 1 | 0.84 | 4.39 | no change | caspase activation | active
KRTAP13-2 | 2 | 0.44 | 3.76 | reduced viability | caspase activation | active
KRTAP13-2 | 3 | 0.82 | 1.18 | no change | no change | inactive
KRTAP13-2 | 4 | 0.86 | 1.03 | no change | no change | inactive

An excerpt from above, limited to “caspase hit class”.
OTUB2 #2 = caspase activation
OTUB2 #3 = caspase activation
OTUB2 #4 = no change
QSOX1 #1 = no change
QSOX1 #2 = no change
QSOX1 #3 = caspase activation
QSOX1 #4 = caspase activation
GLYCTK #1 = caspase activation

Continued.
target | reagent no. | viability relative to mock | caspase activity relative to mock | viability hit class | caspase hit class | activity call
ARSA | 1 | 0.94 | 2.55 | no change | no change | inactive
ARSA | 2 | 0.58 | 3.05 | no change | caspase activation | active
ARSA | 3 | 0.88 | 1.1 | no change | no change | inactive
ARSA | 4 | 0.23 | 3.17 | no change | no change | inactive
RPS28 | 1 | 0.37 | 0.58 | reduced viability | no change | active
RPS28 | 2 | 0.3 | 0.58 | no change | no change | inactive
RPS28 | 3 | 0.28 | 0.52 | reduced viability | no change | active
RPS28 | 4 | 0.3 | 1.54 | reduced viability | no change | active
NOP58 | 1 | 0.54 | 1.8 | reduced viability | no change | active
NOP58 | 2 | 0.62 | 0.96 | no change | no change | inactive
NOP58 | 3 | 0.98 | 0.98 | no change | no change | inactive
NOP58 | 4 | 0.76 | 0.88 | no change | no change | inactive
NUP62 | 1 | 0.86 | 4 | no change | caspase activation | active
NUP62 | 2 | 0.85 | 2.58 | no change | caspase activation | active
NUP62 | 3 | 0.61 | 3.77 | no change | caspase activation | active
NUP62 | 4 | 0.46 | 4.12 | reduced viability | caspase activation | active
NUP93 | 1 | 0.53 | 3.21 | reduced viability | caspase activation | active
NUP93 | 2 | 0.54 | 3.11 | reduced viability | caspase activation | active
NUP93 | 3 | 0.66 | 1.5 | no change | no change | inactive
NUP93 | 4 | 0.41 | 2.79 | reduced viability | caspase activation | active
SKIC2 | 1 | 0.81 | 2.99 | no change | caspase activation | active
SKIC2 | 2 | 0.92 | 1.38 | no change | no change | inactive
SKIC2 | 3 | 0.72 | 1.46 | no change | no change | inactive
SKIC2 | 4 | 0.55 | 3.19 | reduced viability | caspase activation | active
SALL3 | 1 | 0.44 | 2.99 | reduced viability | caspase activation | active
SALL3 | 2 | 0.55 | 4.59 | reduced viability | caspase activation | active
SALL3 | 3 | 0.82 | 1.5 | no change | no change | inactive
SALL3 | 4 | 0.98 | 1.69 | no change | no change | inactive
BDP1 | 1 | 0.9 | 1.08 | no change | no change | inactive
BDP1 | 2 | 0.52 | 0.79 | reduced viability | no change | active
BDP1 | 3 | 0.42 | 1.3 | reduced viability | no change | active
BDP1 | 4 | 0.56 | 0.84 | reduced viability | no change | active
CYP7A1 | 1 | 0.94 | 1.31 | no change | no change | inactive
CYP7A1 | 2 | 1 | 1.07 | no change | no change | inactive
CYP7A1 | 3 | 0.7 | 1.64 | no change | no change | inactive
CYP7A1 | 4 | 0.26 | 3.73 | reduced viability | caspase activation | active
